Measured values: US6921749B1 (Universita' Degli Studi di Milano, priority 1999, dated 2005)

Assay: peptide synthesis
Settings: whole synthesis, scale 0.1 mmoles

**Q.** Which isolated mass does the source give for “SQGQVQPGARIFSFDGRDVLRHPAWPQKSVWHGSDPSGRRLMESY” here?
**A.** 98 mg

Where no end group is shown, it is not given here.
